Data published in patent publication US12702307B2, “Non-invasive stress imaging methods of diagnosing peripheral arterial disease via dynamic pet” (Jubilant DraxImage inc., priority 2021, dated 2026).

Tested on: calf muscles, hindlimb ischemia (HLI)
Test: Rb-82 PET/CT of calf muscles in rabbit hindlimb ischemia at rest and cuff-induced hyperemia
Assay type: in vivo, rabbits
Method: Methods: Hindlimb ischemia (HLI) was created in rabbits (n=8) by right femoral ligations and Rb-82 PET/CT imaging performed on digital PET scanner (Vision600, Siemens) at either 2 or 4 weeks post-ligation. Rabbits were injected with Rb-82 (1.5 mCi) with constant activity infusion over 30 seconds at rest and 30 seconds following hyperemia induced by 3 minutes cuff occlusion of thighs bilaterally. PET images were acquired with shuttling scanner from heart to feet using 8 passes over 7 minutes. Summed images were created excluding the first 90 seconds post injection. Calf muscles were segmented based on CT images. Mean Rb-82 standardized uptake values (SUVs) were calculated for calf muscles—gastrocnemius (GC), plantaris (PLA), soleus (SOL), tibialis anterior (TA), extensor digitorum longus (EDL), peroneus (PER)—for both ischemic (I) and non-ischemic (NI) limbs. CT angiography was performed, and tissues analyzed for fiber type and capillary density.

## Rb-82 chloride
Ischemic (I) limb, in presence of collaterals
  SMPR (skeletal muscle perfusion reserve): 1.98±0.63
non-ischemic (NI) limb
  SMPR (skeletal muscle perfusion reserve): 2.30±0.54
